Drawing on article PMC7819943, “Rice protein-binding microarrays: a tool to detect cis-acting elements near promoter regions in rice”, this text covers binding signal for 54 sequences.

Chains of the proteins cited; added tags and fusions are not shown.
UniProt Q0JBA9, entry or part of it: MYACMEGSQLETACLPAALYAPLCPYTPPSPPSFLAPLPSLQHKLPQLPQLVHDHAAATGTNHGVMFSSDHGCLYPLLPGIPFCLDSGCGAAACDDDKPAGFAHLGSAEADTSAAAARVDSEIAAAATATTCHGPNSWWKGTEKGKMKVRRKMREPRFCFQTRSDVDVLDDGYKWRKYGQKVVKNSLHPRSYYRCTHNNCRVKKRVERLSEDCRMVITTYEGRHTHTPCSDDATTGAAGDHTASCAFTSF

Some of the results follow.

This assay deals with OsWRKY34 (Oryza sativa, UniProt Q0JBA9 1-250). The assay can be described thus: protein-binding microarray (RPBM); PBS, 2% BSA, 51.3 ng/ul salmon testes DNA, 50 uM zinc acetate, 200 nM TF, 25 C, 1 h; high values mean tight binding. The settings on record: protein: recombinant; tags: N-terminal polyhistidine and DsRed monomer fusion (pET32a); label: CyDye5-dUTP incorporated in the synthesized complementary strand; 3' TTTTT single-stranded linker to array surface; dsDNA, one strand shown. The method, boiled down: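 Binding signal is reported as fluorescence intensity per feature (arbitrary units) from an Axon 4000B scanner. Incubation used 200 nM of each Ni–NTA-purified, N-terminally polyhistidine- and DsRed-fused transcription factor from E. coli BL21-CodonPlus on a double-stranded custom Agilent array for 1 h at 25 °C, with 50 µM zinc acetate in the buffer, followed by washing.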
For the sequence “CACTGTACTTTTTATTTTGCTCACACTGGACCAAATTACTCGGAGTCACCTAGTGCAG”, the binding signal was 9300 fluorescence intensity (a.u.).
With “TACGATATGCTACATGCGGCCGCATCTGTCAAACTGTCAACGGAGTCACCTAGTGCAG” the figure was 10700 fluorescence intensity (a.u.).
As for “ATCTGTTCCAAAATCACATCCTGATTGATTCGTAATAGTACGGAGTCACCTAGTGCAG”, the figure is 8420 fluorescence intensity (a.u.); as for “CAAACACACAAGCGCCCACTCGTCACACGCTATACGGCACCGGAGTCACCTAGTGCAG”, 9510 fluorescence intensity (a.u.).
With “CTTTGACTTTTCCTGCACCCCACAAAATATCGCTTTTGATCGGAGTCACCTAGTGCAG” the figure was 8620 fluorescence intensity (a.u.); with “CTATTATAGCGTGTCGGACACTGACTCCTCCCATGTTCCTCGGAGTCACCTAGTGCAG”, 11100 fluorescence intensity (a.u.).
Regarding “GCTGTATTGGTCTTGTCTCTCCTGTGTAGTGTGTGTGCACCGGAGTCACCTAGTGCAG”, the binding signal was 10700 fluorescence intensity (a.u.).
With “TGTCAGACCCATACCCCTTTAACCTCATGTTTCAAACTTCCGGAGTCACCTAGTGCAG” the figure was 8040 fluorescence intensity (a.u.).
As to “AGGTCTTTTCCCATCTCCGCGGCCCGAAACACAAAAAACCCGGAGTCACCTAGTGCAG”, the binding signal is 9260 fluorescence intensity (a.u.).
With “TTGAGTTAGTCATTGCCCATTGTTCGATATGATCTTAATTCGGAGTCACCTAGTGCAG” the figure was 8450 fluorescence intensity (a.u.).
As for “GTGGCTGCGGCTGCGGCTCGGCTCGGGTGGTGGGAACCGACGGAGTCACCTAGTGCAG”, the figure is 8260 fluorescence intensity (a.u.).
As for “TTCCGGGTGGTGGAGAAGGTGTAGGGGTCTCGAGGTGTTCCGGAGTCACCTAGTGCAG”, the figure is 12500 fluorescence intensity (a.u.); as for “ATCTTCAATCGTGCAGCCCTATCCTTATCCTCTTCCCAACCGGAGTCACCTAGTGCAG”, 8680 fluorescence intensity (a.u.); as for “GACCTTCTGCCGACTCTCCACTGCTCTCTCATCTCTTCCGCGGAGTCACCTAGTGCAG”, 11400 fluorescence intensity (a.u.).
Consider “ACGTGCCTTGTGATTATCTTTTCTCGTACTGCGTCGTTGGCGGAGTCACCTAGTGCAG”, for which the binding signal was 8230 fluorescence intensity (a.u.).
As for “GCCGACCGATCGGACCTTTATATACGGTCTCGTCCGATCGCGGAGTCACCTAGTGCAG”, the figure is 8570 fluorescence intensity (a.u.).
With “GCGATGAATCTAATCAAGATTTCCTGGAACCCTCATGTATCGGAGTCACCTAGTGCAG” the figure was 9140 fluorescence intensity (a.u.); with “ACGGCATATCCAGATTGTCACATCCACCCAAAATCTCTTACGGAGTCACCTAGTGCAG”, 8190 fluorescence intensity (a.u.); with “ACATGAGCAAATAAACAACATGCCTCTGTTACCACACTCTCGGAGTCACCTAGTGCAG”, 8200 fluorescence intensity (a.u.).
With “CTAGATCAGGTTGTTAGCTTGCATGTGTTGAATTAGTGTGCGGAGTCACCTAGTGCAG” the figure was 8720 fluorescence intensity (a.u.).
With “GCGTTGAAATTTCGCGGAATTCGACCGGTTTTTGTCGGAACGGAGTCACCTAGTGCAG”, the binding signal was 8230 fluorescence intensity (a.u.).
As for “CCACATATTAATCAGCCGCACACCGTTGCCCGCCTACCACCGGAGTCACCTAGTGCAG”, the figure is 12700 fluorescence intensity (a.u.); as for “GTTGGTTGTCTCCTCCGCCTCGAGCCAAGACCCACACCTACGGAGTCACCTAGTGCAG”, 8600 fluorescence intensity (a.u.).
As for “ACACCCGTCCTATGCCGGTTCATTTTTTTTTTATTTTCTCCGGAGTCACCTAGTGCAG”, the figure is 10800 fluorescence intensity (a.u.); as for “CGTTGACTTTTTAGTACATGTTTGACCATTCGTCTTATTCCGGAGTCACCTAGTGCAG”, 36100 fluorescence intensity (a.u.).
As for “CAATTTTAGTTCAATCTTGGGTGTTTTCGCATGGTTCTCTCGGAGTCACCTAGTGCAG”, the figure is 8180 fluorescence intensity (a.u.); as for “TCTCCGGCTCCACTTCGGTCTAATCCTTCTTTCCGATGCTCGGAGTCACCTAGTGCAG”, 8730 fluorescence intensity (a.u.); as for “CCCGCCGCCAGCTTCCCGTTGACTAGGATTGTTGACCCTACGGAGTCACCTAGTGCAG”, 12400 fluorescence intensity (a.u.).
Turning to “GGGCACCACTACACCACCACCACTACACAGCAAGTAGTACCGGAGTCACCTAGTGCAG”, the binding signal was 8690 fluorescence intensity (a.u.).
As for “TATTACTTATTTTTAATTCCGAATTTTAGCTATTTTAAAACGGAGTCACCTAGTGCAG”, the binding signal is 8770 fluorescence intensity (a.u.).
As for “GTGTTGTGGTTGAATGGTCAGAAAAGCGGTAATGTTGGCACGGAGTCACCTAGTGCAG”, the figure is 8440 fluorescence intensity (a.u.).
Turning to “GGCTGTTCATTTCTGATAGACGGAGCAGATTAGCGCTAATCGGAGTCACCTAGTGCAG”, the binding signal is 8140 fluorescence intensity (a.u.).
With “GGTTTTTCCTAGTTTTGAGATTTACGTGCTATTTTGTGAACGGAGTCACCTAGTGCAG” the figure was 8950 fluorescence intensity (a.u.).
On to “GGAATTTCTCAGCTCACACGAGTCACGGACCCACCACCACCGGAGTCACCTAGTGCAG”, for which the binding signal was 8960 fluorescence intensity (a.u.).
In the case of “TTGTTCGCTGTGCTCCCGGCTTATACTCATACTTCGGTCTCGGAGTCACCTAGTGCAG”, the binding signal was 9250 fluorescence intensity (a.u.).
Consider “ATCACCGCTTACACCACACCCCGTGACGTGTCACTTTCCACGGAGTCACCTAGTGCAG”, for which the binding signal is 8700 fluorescence intensity (a.u.).
Regarding “TGGGGAGTTAAACATATCAGGTATTGTGGTTGAAGGAGATCGGAGTCACCTAGTGCAG”, the binding signal was 9690 fluorescence intensity (a.u.).
With “GTGAGAAAGTTTGTTTCGTTTTCCGCGCACATGTTTCCCGCGGAGTCACCTAGTGCAG” the figure was 8980 fluorescence intensity (a.u.); with “GGCTGTGGAGGGAGGGAGCACCGGCGACGGTGGCAGGCCGCGGAGTCACCTAGTGCAG”, 12000 fluorescence intensity (a.u.); with “ACACCCTCGTACATTTCTCCTGCTCATCTGTTTTCTTCGACGGAGTCACCTAGTGCAG”, 13600 fluorescence intensity (a.u.).
As for “GCGCTCAATCTCCGGCGTCGGTATCCACTCCAGCAACTCCCGGAGTCACCTAGTGCAG”, the figure is 11100 fluorescence intensity (a.u.).
As for “CCAGCCACCCACCCACCGGCCTAAACCACGGCGGCCCATTCGGAGTCACCTAGTGCAG”, the figure is 9360 fluorescence intensity (a.u.).
On to “ATATGGCATCTCGGTTTCGTCTTAACAGGGTATTGCACTACGGAGTCACCTAGTGCAG”, for which the binding signal is 9900 fluorescence intensity (a.u.).
For “CACCGTCTGTCCGTCTCGTCGGTGAGCCGCCCGCGACCTCCGGAGTCACCTAGTGCAG”, the binding signal was 9910 fluorescence intensity (a.u.).
Take “TGTAATTATTCCCTCAGGTATCAATCAATTCAGTTAACTTCGGAGTCACCTAGTGCAG”: the binding signal is 8650 fluorescence intensity (a.u.).
As for “TCGTCCCGCCATTTCCGCGCGTTGCCTTCTCGCCGCGCGACGGAGTCACCTAGTGCAG”, the binding signal is 9530 fluorescence intensity (a.u.).
As for “TCCTTATTCAACAATTTGTCTGATACTTGCATGCCCACAGCGGAGTCACCTAGTGCAG”, the figure is 9820 fluorescence intensity (a.u.).
With “ATTTTTTTCGGTTTGGTTGATTTTATTGAGTTACATTTACCGGAGTCACCTAGTGCAG” the figure was 10900 fluorescence intensity (a.u.); with “GCGTTGTATCCGGTTTGGTTTTGTGGTTCAAGGACGATTTCGGAGTCACCTAGTGCAG”, 10500 fluorescence intensity (a.u.); with “GTCCTTCGCGCGCGCCTCGCCGCGCCATGCCGCGCGCGTCCGGAGTCACCTAGTGCAG”, 8920 fluorescence intensity (a.u.).
As for “CTCAATTAATTACATATTATTACCACATCTTTTTACGTAACGGAGTCACCTAGTGCAG”, the binding signal is 9660 fluorescence intensity (a.u.).
With “GCTCGCCGTCACGCCGCTCCTCTCCCTCGCCGGTGCGCCACGGAGTCACCTAGTGCAG” the figure was 8100 fluorescence intensity (a.u.).
With “ATGTGGTTTGGTGAGCGCCGCTGTGCCCACCTAACCCACACGGAGTCACCTAGTGCAG” the figure was 27300 fluorescence intensity (a.u.).
Consider “CATTATTAAAATATATATGTGTTACATTCGGTATTATATTCGGAGTCACCTAGTGCAG”, for which the binding signal was 8650 fluorescence intensity (a.u.).
